{
  "source": "PubChem BioAssay AID504467",
  "about": "(National Center for Advancing Translational Sciences (NCATS), 2011)",
  "note": "Out of some 330,000 compounds screened, about 7,700 (2.3%) were called active. Inconclusive means that the source gave no clear call. Such entries were picked first, then a sample of the others. Calls follow the shape of the dose curve; as a rule, active = well fitted inhibition curve with a large enough effect; inconclusive = small, poorly fitted or top-dose-only effect, or effect the other way; inactive = flat fitted curve, though single readings scatter. A potency beside an inconclusive call is a rough fit, not a confirmed value. % is scaled to controls: 0 for no effect and ±100 for the full control effect; potency is read from the fitted curve at half-maximal effect.",
  "data": [
    {"assay": "qHTS screen for small molecules that inhibit ELG1-dependent DNA repair in human embryonic kidney (HEK293T) cells expressing luciferase-tagged ELG1; also: nearly all actives have a fitted effect of over 55% in size", "details": "HEK293T ELG1-luciferase reporter, luminescence, 16 h, DNA damage induced by 5-fluorouridine; activity change, negative = inhibition: at 46.1 µM (top of the series)", "in_short": "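Step one: seed 2,000 cells per well. Step two: pin-transfer compound or DMSO alongside 5-fluorouridine. Step three: incubate 16 hr, 37 °C, 5% CO2. Step four: add ONE-Glo, wait 30 min, read luminescence.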", "values": [
      {"compound": "CN(N=Nc1cccc([N+](=O)[O-])c1)c1cccc([N+](=O)[O-])c1", "Potency": "inconclusive: 29.1 µM [activator, single point]"},
      {"compound": "COc1ccc(CC(=O)Nc2cccc(S(=O)(=O)N3CCCC3)c2)cc1OC", "Potency": "inconclusive: 9.2 µM [inhibitor, partial curve, poor fit]"},
      {"compound": "Cc1oc(-c2ccccc2Cl)nc1CSc1nc2c(c(=O)[nH]1)CCC2", "Potency": "inconclusive: 20.6 µM [inhibitor, single point]"},
      {"compound": "COC(=O)c1oc2ccc(Cl)cc2c1-n1cccc1", "activity change, negative = inhibition": "inactive: 12.1%"},
      {"compound": "C[C@H](NC(=O)[C@@H]1Cc2ccccc2CN1)C(=O)Nc1ccc2c(c1)OCO2", "activity change, negative = inhibition": "inactive: 29.5%"},
      {"compound": "Cc1ccsc1/C=N/NC(=O)Nc1ccccc1", "Potency": "inconclusive: 16.4 µM [activator, partial curve]"},
      {"compound": "CC(C)(C)C(=O)Nc1nc(-c2ccccc2)ns1", "Potency": "inconclusive: 1.84 µM [activator, partial curve]"},
      {"compound": "O=C(CNCC1CCCO1)Nc1ccc([N+](=O)[O-])cc1C(=O)Nc1ccccc1F", "note": "(stereo unspecified)", "Potency": "inconclusive: 29.1 µM [inhibitor, single point]"},
      {"compound": "C/C(=C\\C(=O)c1ccc(F)cc1)Nc1ccc(N2CCOCC2)cc1", "activity change, negative = inhibition": "inactive: -1.11%"},
      {"compound": "O=C(C[C@H]1C/C=C\\CC[C@H](Cc2ccc(F)cc2)C(=O)O[C@@H](c2ccccc2)CNC1=O)N[C@@H](CO)Cc1ccccc1", "Potency": "active: 9.2 µM"},
      {"compound": "CCOC(=O)C1=C(N)OC2=C(C(=O)CCC2)C1c1ccc(C)s1", "note": "(stereo unspecified)", "Potency": "inconclusive: 29.1 µM [activator, single point]"},
      {"compound": "O=C(CO/N=C/c1ccc(OC(F)F)cc1)NC1CCCCCC1", "Potency": "inconclusive: 23.1 µM [inhibitor, single point]"},
      {"compound": "CC(=O)c1cn(CC(=O)Nc2ccc(C)c(C)c2)c2ccccc12", "Potency": "active: 2.06 µM"},
      {"compound": "CC(=O)Nc1n[nH]c(-c2ccc(C)cc2)c1C", "Potency": "inconclusive: 16.4 µM [activator, partial curve, poor fit]"},
      {"compound": "CCCn1c(N)c(C(=O)CN2CCc3ccccc3C2)c(=O)n(C)c1=O", "activity change, negative = inhibition": "inactive: 10.4%"},
      {"compound": "CCOC(=O)C1CCN(C(=O)CNC(=O)c2nn(-c3ccc(OC)c(Cl)c3)c(=O)c3ccccc23)CC1", "Potency": "active: 14.6 µM"},
      {"compound": "O=C(COc1ccc(/C=N/NC(=O)c2ccncc2)cc1)Nc1cccc([N+](=O)[O-])c1", "Potency": "inconclusive: 16.4 µM [activator, single point]"},
      {"compound": "Cc1ccc(C)c(-c2ccc(=O)n(Cc3c(F)cccc3Cl)n2)c1", "Potency": "inconclusive: 23.1 µM [inhibitor, single point]"},
      {"compound": "COc1ccc(CN2C(=O)CN=C2Nc2ccc(C)cc2C)cc1", "Potency": "inconclusive: 29.1 µM [activator, single point]"},
      {"compound": "O=C1N[C@H](Cc2ccccc2)CO1", "Potency": "inconclusive: 22.4 µM [activator, single point]"},
      {"compound": "CCOc1ccc(NC2=CC(=O)CCC2)cc1", "activity change, negative = inhibition": "inactive: 17%"},
      {"compound": "CC1CC(C)CN(C(=O)CCNC(=O)c2ccccc2Cl)C1", "note": "(stereo unspecified)", "Potency": "inconclusive: 11.6 µM [inhibitor, partial curve]"},
      {"compound": "CCOC(=O)C1CCCN(C(=O)c2ccc3oc(CCc4ccccc4)nc3c2)C1", "note": "(stereo unspecified)", "Potency": "inconclusive: 16.4 µM [activator, partial curve]"},
      {"compound": "CCOC(=O)c1c(C)n(C)c2ccc(O)c(CN(CC)CC)c12", "Potency": "inconclusive: 23.1 µM [inhibitor, single point]"},
      {"compound": "COCCn1c(C)cc(C(=O)CSc2nc3ccccc3c(=O)[nH]2)c1C", "Potency": "inconclusive: 2.31 µM [activator, partial curve]"},
      {"compound": "O=c1oc2c(CN3CCOCC3)c(O)c(Cl)cc2c2c1CCC2", "Potency": "inconclusive: 28.2 µM [inhibitor, single point]"},
      {"compound": "Cc1cc(N2CCN(C(=O)c3cccs3)CC2)c(F)cc1[N+](=O)[O-]", "Potency": "inconclusive: 18.3 µM [inhibitor, partial curve, poor fit]"},
      {"compound": "CN(C)c1ccc(NC(=O)N2CCOCC2)cc1", "Potency": "inconclusive: 18.4 µM [activator, partial curve]"},
      {"compound": "COc1ccc(-c2ccc(C(C)=O)cc2)cc1[C@H]1[C@H]2C=CC[C@@H](C)[C@@H]2C(=O)N1Cc1ccccc1", "Potency": "inconclusive: 29.1 µM [inhibitor, single point]"},
      {"compound": "COC(=O)CNc1c(-c2ccccn2)nc2ccc(Br)cn12", "Potency": "inconclusive: 2.91 µM [activator, full curve]"},
      {"compound": "O=Cc1cnc(N2CCCCC2)s1", "activity change, negative = inhibition": "inactive: 28.5%"},
      {"compound": "O=C(NC1CCCCC1)c1ccc([N+](=O)[O-])o1", "Potency": "inconclusive: 4.11 µM [inhibitor, partial curve]"},
      {"compound": "COc1cc2[nH]c(=O)n(CCC(=O)N3CCc4ccccc4C3)c(=O)c2cc1OC", "activity change, negative = inhibition": "inactive: -3.6%"},
      {"compound": "CCCOc1ccc(/C=N/Nc2cccc([N+](=O)[O-])c2)c(O)c1", "Potency": "inconclusive: 18.4 µM [activator, partial curve]"},
      {"compound": "Cc1cccnc1NC(=O)C1CCN(S(=O)(=O)c2c(C)noc2/C=C/c2ccco2)CC1", "activity change, negative = inhibition": "inactive: -23%"},
      {"compound": "CC1Cc2cc(S(=O)(=O)N3CCCCC3C)ccc2N1C(=O)C1CCC1", "note": "(stereo unspecified)", "Potency": "inconclusive: 29.1 µM [inhibitor, single point]"},
      {"compound": "Cc1ccc(OCCNC(=O)c2ccccc2N)cc1", "Potency": "inconclusive: 16.4 µM [activator, partial curve, poor fit]"},
      {"compound": "O=C(CSc1nnc(Nc2ccccc2F)s1)NCC1CCCO1", "note": "(stereo unspecified)", "Potency": "inconclusive: 23.1 µM [activator, single point]"},
      {"compound": "O=C(CC1CC2CCC1C2)Nc1nc(-c2ccccn2)cs1", "note": "(stereo unspecified)", "Potency": "active: 20.6 µM"},
      {"compound": "CC(C)c1ccc(NC(=O)COC(=O)[C@H](CCC(N)=O)NC(=O)c2ccc(F)cc2)cc1", "Potency": "inconclusive: 25.9 µM [inhibitor, single point]"},
      {"compound": "Cc1csc(NC(=O)c2cc(-c3ccncc3)nc3ccccc23)n1", "Potency": "inconclusive: 29.1 µM [inhibitor, partial curve, poor fit]"},
      {"compound": "Cc1csc(NC(=O)Cc2ccc(F)cc2)n1", "Potency": "inconclusive: 20.6 µM [activator, partial curve]"},
      {"compound": "Cc1noc(/C=C/c2ccccn2)c1[N+](=O)[O-]", "Potency": "active: 18.3 µM"},
      {"compound": "COc1ccccc1P(=O)(Cc1ccccc1)c1ccccc1", "note": "(stereo unspecified)", "activity change, negative = inhibition": "inactive: -0.976%"},
      {"compound": "CC(Sc1nc2ccccc2c(=O)n1CC1CCCO1)C(=O)N(C)c1ccccc1", "note": "(stereo unspecified)", "Potency": "inconclusive: 29.1 µM [inhibitor, single point]"},
      {"compound": "Cc1nc(-c2cccnc2)sc1C(=O)Nc1ccc(F)cc1F", "activity change, negative = inhibition": "inactive: -15.4%"},
      {"compound": "COc1cccc(C(=O)CC(=O)C(=O)Nc2ccc([N+](=O)[O-])cc2C)c1", "Potency": "inconclusive: 16.4 µM [inhibitor, single point]"},
      {"compound": "COc1ccc(N2CCN(C(=O)c3ccc(COc4ccc([N+](=O)[O-])cc4)o3)CC2)cc1", "Potency": "active: 20.6 µM"},
      {"compound": "c1ccc2c(-c3ccc(OCCN4CCCCC4)cc3)c(-c3ccsc3)sc2c1", "activity change, negative = inhibition": "inactive: -2.98%"},
      {"compound": "O=C(CNC(=O)c1ccccc1F)OCc1nc2ccccc2s1", "Potency": "inconclusive: 16.4 µM [activator, single point]"},
      {"compound": "Cc1ccccc1C(=O)Nc1ccc(C(=O)N/N=C/c2ccc(F)cc2)cc1", "activity change, negative = inhibition": "inactive: -8%"},
      {"compound": "Cc1sc2nc(C3CC3)nc(N3CCN(S(=O)(=O)c4ccc(F)cc4)CC3)c2c1C", "Potency": "inconclusive: 23.1 µM [inhibitor, partial curve]"},
      {"compound": "Cc1ccc(CC(C(=O)O)C(C)C(=O)Nc2ccc(F)cc2)cc1", "note": "(stereo unspecified)", "activity change, negative = inhibition": "inactive: -3.88%"},
      {"compound": "CC(C)N(Cc1cnn(C)c1)Cc1nc(COc2ccccc2)no1", "Potency": "inconclusive: 18.3 µM [inhibitor, partial curve, poor fit]"},
      {"compound": "O=C1CC(c2ccccc2Br)c2cc3c(cc2N1)CCC3", "note": "(stereo unspecified)", "Potency": "inconclusive: 2.59 µM [inhibitor, full curve]"},
      {"compound": "COc1cccc(OC)c1C(=O)Nc1cccc(-c2ccc3nncn3n2)c1", "Potency": "inconclusive: 18.3 µM [activator, single point]"},
      {"compound": "COc1ccc(C2=CSC3=NNC4(CCCCC4)NN23)cc1", "Potency": "inconclusive: 25.9 µM [inhibitor, single point]"},
      {"compound": "CC(C)n1ncc2c(C(=O)NCCOc3ccccc3F)cc(C3CC3)nc21", "Potency": "inconclusive: 20.6 µM [inhibitor, single point]"},
      {"compound": "O=C(NCc1cccs1)C(=O)NCC(c1ccco1)N1CCN(c2ccccc2F)CC1", "note": "(stereo unspecified)", "Potency": "active: 18.3 µM"},
      {"compound": "O=C(CCC1CCCC1)Nc1cccc(Cc2ccncc2)c1", "activity change, negative = inhibition": "inactive: 2.39%"},
      {"compound": "COc1ccc(C(=O)Nc2cccc(/C=C(\\CCC(=O)O)c3nc4ccccc4s3)c2)cc1", "Potency": "inconclusive: 16.4 µM [activator, single point]"},
      {"compound": "Cc1ccc(C(=O)OC(C)C(=O)NC2CCCCC2C)s1", "note": "(stereo unspecified)", "activity change, negative = inhibition": "inactive: -0.877%"},
      {"compound": "Nc1cc(=O)[nH]c(SCC(=O)Nc2nnc(-c3ccccc3)s2)n1", "Potency": "inconclusive: 25.9 µM [activator, partial curve]"},
      {"compound": "CC(C)CC1=NN(C(=O)c2ccco2)C(O)(C(F)(F)F)C1", "note": "(stereo unspecified)", "activity change, negative = inhibition": "inactive: 8.12%"},
      {"compound": "Cc1c(NC(=O)c2ccc3c(c2)OCO3)cccc1-c1nc2ncccc2o1", "Potency": "inconclusive: 18.4 µM [inhibitor, single point]"},
      {"compound": "COc1cccc(-c2nnc3sc(-c4cccs4)nn23)c1", "activity change, negative = inhibition": "inactive: 2.73%"},
      {"compound": "COc1ccc(-c2cn3c(C)c(C(=O)Nc4cccc(NC(C)=O)c4)sc3n2)cc1", "activity change, negative = inhibition": "inactive: 13.6%"},
      {"compound": "CC(C)Cn1c(N)c(C(=O)NCc2cccs2)c2nc3ccccc3nc21", "Potency": "active: 9.2 µM"},
      {"compound": "Cc1sc2ncnc(N/N=C/c3ccccc3O)c2c1C", "Potency": "inconclusive: 29.1 µM [activator, single point]"},
      {"compound": "COc1ccccc1/C=C/C(=O)N1CCC(c2ccccc2)C1", "note": "(stereo unspecified)", "Potency": "inconclusive: 14.6 µM [activator, partial curve]"},
      {"compound": "COc1cc(C)nc(NCc2ccccc2)n1", "Potency": "inconclusive: 11.6 µM [activator, partial curve, poor fit]"}
    ]}
  ]
}
